# Laboratory results: paper doi:10.1101/2021.07.02.450872
# Sequences of proteins named here, by UniProt entry; tags and fusion partners are left off. A change or cut given only in a name is not applied to a line headed by its entry.
# UniProt Q3ULJ3: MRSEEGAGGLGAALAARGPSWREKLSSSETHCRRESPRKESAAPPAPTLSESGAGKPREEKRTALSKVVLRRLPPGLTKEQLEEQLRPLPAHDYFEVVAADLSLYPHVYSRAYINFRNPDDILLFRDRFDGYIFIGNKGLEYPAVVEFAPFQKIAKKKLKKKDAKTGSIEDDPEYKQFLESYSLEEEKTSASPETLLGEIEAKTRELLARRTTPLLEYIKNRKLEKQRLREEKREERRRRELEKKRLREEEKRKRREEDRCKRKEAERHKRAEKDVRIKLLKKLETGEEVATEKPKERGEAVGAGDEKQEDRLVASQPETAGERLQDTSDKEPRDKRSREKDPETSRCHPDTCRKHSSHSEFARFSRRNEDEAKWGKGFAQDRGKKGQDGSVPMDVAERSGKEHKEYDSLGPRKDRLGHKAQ
# UniProt Q9HAU5: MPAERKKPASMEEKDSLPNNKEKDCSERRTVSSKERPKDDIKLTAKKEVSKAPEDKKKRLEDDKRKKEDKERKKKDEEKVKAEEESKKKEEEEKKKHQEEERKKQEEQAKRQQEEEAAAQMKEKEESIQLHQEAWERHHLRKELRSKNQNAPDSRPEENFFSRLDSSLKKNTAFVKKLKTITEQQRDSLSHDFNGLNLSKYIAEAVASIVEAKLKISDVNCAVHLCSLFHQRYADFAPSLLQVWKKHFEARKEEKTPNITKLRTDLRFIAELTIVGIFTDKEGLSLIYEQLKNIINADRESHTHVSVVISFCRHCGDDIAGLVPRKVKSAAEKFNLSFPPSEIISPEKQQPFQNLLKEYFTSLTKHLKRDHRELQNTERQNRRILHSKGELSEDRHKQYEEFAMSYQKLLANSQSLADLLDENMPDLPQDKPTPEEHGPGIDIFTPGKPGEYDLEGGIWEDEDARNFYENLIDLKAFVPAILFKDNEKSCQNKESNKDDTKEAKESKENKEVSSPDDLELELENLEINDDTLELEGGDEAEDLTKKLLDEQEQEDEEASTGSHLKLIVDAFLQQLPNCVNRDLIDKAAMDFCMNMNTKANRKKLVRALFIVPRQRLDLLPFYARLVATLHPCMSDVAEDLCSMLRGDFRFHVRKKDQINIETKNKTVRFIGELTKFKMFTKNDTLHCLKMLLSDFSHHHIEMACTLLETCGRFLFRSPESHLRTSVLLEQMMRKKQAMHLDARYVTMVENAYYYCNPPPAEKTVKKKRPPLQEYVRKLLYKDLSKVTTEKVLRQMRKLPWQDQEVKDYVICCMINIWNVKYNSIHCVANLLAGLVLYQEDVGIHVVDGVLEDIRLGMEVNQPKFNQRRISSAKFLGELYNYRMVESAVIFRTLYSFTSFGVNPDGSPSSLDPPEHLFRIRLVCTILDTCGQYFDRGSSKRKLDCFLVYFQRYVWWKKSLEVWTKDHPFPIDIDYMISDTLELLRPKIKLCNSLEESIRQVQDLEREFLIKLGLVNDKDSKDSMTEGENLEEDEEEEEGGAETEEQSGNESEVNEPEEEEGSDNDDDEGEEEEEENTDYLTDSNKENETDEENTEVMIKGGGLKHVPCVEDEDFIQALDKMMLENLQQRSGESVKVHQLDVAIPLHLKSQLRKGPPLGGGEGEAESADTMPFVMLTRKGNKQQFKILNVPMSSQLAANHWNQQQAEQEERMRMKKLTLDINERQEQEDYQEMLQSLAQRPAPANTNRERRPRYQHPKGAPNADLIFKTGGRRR
# Results are given in words; binding and its absence hold for the method and conditions named. In cells and extracts the contact can be indirect. A result given as binding can be weak or reduced; the word gives no strength.
# Target: FLAG-tagged mouse UPF3A (in 3DKO HCT116 cells) (mouse) (UniProt Q3ULJ3)
# Test: co-IP
substance,measurement,value
"UPF2 (endogenous, HCT116 3DKO cells) (from UniProt Q9HAU5 1-1272)",binding,binds
